Test results as given in the supplement of paper PMC10849652.
Some of the results follow.

Protein sequences, listed by entry. Tags and fused reporters are not part of them. Lines headed by an entry give the natural chain unless they say otherwise; changes in a name come on top.
UniProt P52943: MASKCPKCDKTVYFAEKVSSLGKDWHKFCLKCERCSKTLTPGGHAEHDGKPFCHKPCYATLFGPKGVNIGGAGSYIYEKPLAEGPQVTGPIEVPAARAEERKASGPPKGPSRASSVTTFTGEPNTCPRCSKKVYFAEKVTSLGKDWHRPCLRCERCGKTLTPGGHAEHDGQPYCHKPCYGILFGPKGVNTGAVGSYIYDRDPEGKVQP
UniProt O75534: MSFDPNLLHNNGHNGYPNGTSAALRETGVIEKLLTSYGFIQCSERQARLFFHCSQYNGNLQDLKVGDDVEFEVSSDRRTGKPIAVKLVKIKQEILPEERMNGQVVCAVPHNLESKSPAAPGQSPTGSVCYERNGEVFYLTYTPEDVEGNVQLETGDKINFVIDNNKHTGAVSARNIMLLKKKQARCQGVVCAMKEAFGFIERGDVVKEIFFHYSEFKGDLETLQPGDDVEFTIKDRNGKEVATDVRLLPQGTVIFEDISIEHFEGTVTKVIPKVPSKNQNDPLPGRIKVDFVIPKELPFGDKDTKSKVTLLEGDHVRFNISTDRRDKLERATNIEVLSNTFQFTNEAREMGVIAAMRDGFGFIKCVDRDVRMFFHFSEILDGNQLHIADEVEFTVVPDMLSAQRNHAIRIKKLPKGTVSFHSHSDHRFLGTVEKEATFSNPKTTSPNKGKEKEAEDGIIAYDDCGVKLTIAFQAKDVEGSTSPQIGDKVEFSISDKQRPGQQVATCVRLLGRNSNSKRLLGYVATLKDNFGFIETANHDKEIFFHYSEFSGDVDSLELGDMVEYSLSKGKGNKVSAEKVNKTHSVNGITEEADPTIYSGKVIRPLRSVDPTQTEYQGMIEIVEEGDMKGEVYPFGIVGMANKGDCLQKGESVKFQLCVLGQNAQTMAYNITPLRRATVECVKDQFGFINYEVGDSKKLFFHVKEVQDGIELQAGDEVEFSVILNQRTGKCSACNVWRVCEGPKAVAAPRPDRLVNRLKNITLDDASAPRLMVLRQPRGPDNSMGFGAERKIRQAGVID
UniProt Q14894: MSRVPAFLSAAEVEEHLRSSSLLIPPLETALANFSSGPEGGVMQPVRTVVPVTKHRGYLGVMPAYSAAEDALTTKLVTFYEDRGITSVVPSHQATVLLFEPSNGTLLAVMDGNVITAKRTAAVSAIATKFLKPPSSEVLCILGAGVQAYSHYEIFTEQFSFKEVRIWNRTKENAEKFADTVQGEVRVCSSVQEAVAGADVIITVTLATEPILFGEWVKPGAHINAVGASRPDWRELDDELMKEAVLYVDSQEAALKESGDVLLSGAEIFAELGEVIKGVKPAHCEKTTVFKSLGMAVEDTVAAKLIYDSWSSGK
UniProt Q03060: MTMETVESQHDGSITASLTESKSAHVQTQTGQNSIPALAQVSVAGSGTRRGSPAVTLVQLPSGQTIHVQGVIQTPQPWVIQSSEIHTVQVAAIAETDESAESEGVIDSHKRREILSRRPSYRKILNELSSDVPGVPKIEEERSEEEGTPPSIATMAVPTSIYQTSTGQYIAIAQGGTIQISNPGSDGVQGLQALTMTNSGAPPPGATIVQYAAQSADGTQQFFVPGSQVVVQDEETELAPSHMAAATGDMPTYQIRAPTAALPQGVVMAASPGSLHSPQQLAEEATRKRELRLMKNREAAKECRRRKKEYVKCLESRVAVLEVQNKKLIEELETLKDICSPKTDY
UniProt Q9UBT7: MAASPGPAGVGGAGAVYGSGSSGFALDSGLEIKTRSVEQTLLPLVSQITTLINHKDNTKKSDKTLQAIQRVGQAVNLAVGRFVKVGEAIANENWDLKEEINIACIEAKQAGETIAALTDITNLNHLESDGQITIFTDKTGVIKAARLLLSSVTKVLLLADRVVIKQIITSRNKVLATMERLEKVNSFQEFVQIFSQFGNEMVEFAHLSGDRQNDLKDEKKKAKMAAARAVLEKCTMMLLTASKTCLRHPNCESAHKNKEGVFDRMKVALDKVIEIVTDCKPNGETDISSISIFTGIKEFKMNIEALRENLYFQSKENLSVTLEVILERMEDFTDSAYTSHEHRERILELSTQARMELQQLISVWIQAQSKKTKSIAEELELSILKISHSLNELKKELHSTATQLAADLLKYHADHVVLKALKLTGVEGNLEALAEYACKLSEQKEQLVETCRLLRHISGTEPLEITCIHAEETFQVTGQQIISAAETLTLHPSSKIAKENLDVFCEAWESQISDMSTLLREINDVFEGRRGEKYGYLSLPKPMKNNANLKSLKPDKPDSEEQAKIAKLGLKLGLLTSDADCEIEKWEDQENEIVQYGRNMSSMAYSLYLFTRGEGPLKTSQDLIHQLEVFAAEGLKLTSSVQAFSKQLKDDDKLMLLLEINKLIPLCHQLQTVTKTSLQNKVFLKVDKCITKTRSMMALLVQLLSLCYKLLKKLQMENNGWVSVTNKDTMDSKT
UniProt Q96DE9: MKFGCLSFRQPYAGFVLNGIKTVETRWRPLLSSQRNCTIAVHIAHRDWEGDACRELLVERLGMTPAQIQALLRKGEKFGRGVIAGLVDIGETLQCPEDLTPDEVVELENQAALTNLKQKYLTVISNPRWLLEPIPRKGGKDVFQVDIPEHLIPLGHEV
UniProt O75575: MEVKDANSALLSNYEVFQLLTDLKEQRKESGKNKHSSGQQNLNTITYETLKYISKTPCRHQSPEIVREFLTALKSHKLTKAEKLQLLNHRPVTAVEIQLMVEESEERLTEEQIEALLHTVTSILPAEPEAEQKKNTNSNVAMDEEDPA
UniProt H7BZ55: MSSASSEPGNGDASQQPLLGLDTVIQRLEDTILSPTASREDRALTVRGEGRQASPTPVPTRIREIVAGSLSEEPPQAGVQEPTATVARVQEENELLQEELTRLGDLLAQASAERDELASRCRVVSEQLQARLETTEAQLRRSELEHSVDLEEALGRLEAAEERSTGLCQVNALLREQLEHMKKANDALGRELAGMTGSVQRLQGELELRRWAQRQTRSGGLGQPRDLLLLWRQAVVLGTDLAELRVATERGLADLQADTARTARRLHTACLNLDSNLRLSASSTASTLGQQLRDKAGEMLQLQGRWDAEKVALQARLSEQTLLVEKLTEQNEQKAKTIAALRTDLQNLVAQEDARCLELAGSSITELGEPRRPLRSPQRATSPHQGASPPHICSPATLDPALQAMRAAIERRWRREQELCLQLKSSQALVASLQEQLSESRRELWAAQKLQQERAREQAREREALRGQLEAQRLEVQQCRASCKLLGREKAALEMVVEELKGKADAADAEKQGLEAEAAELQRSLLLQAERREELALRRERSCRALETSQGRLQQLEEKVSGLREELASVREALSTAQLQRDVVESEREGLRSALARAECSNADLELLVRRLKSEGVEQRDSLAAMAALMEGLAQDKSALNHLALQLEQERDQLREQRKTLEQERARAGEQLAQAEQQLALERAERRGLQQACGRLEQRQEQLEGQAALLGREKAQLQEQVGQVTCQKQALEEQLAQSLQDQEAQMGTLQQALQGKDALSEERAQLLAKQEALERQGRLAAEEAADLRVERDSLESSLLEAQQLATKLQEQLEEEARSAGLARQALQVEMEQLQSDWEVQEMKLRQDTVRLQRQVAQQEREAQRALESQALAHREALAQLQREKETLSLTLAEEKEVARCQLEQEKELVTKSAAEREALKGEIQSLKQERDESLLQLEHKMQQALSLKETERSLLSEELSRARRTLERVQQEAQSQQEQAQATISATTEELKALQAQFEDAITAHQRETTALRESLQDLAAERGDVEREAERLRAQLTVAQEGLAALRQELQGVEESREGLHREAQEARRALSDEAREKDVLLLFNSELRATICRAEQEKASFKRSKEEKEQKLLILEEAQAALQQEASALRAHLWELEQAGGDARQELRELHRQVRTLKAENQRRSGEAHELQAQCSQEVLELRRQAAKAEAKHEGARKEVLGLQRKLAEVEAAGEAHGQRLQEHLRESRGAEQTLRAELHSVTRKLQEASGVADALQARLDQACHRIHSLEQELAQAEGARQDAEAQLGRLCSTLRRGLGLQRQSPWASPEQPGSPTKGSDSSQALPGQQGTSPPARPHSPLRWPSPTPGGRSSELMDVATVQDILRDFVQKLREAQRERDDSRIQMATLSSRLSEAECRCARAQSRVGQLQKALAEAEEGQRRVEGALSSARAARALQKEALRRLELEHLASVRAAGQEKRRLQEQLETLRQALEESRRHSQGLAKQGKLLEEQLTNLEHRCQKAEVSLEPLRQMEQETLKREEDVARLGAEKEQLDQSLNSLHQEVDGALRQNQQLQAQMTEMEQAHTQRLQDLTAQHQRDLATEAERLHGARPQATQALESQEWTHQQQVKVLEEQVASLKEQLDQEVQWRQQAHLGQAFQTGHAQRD
UniProt Q96HD1: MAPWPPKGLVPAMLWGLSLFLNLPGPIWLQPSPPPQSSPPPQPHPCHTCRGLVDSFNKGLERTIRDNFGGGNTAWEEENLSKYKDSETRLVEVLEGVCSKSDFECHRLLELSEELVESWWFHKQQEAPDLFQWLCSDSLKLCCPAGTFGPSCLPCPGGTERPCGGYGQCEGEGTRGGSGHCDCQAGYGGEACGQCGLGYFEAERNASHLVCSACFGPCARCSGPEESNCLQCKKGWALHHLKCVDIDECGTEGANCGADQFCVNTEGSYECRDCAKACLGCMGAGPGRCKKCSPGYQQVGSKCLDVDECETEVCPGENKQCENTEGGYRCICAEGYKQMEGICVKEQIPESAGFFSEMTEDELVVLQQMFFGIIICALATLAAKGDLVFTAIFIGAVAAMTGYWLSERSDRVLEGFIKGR
UniProt Q6UUV9: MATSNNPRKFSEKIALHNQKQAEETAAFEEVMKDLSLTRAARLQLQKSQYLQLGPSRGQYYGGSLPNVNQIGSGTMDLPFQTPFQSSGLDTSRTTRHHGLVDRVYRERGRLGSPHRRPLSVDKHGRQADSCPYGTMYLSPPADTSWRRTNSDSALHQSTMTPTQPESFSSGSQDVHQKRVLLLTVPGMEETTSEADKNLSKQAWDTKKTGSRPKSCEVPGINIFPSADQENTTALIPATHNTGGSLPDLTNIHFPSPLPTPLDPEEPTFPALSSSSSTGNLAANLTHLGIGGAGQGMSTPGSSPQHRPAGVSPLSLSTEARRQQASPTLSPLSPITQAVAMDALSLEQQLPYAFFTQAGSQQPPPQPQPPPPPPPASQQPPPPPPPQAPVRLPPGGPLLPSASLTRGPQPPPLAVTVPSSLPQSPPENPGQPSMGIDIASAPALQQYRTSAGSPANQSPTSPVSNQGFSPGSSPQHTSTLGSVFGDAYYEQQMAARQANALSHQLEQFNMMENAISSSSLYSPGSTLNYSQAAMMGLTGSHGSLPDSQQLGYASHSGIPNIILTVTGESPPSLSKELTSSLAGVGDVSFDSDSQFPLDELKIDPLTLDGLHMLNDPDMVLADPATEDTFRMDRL
UniProt Q2VPK5: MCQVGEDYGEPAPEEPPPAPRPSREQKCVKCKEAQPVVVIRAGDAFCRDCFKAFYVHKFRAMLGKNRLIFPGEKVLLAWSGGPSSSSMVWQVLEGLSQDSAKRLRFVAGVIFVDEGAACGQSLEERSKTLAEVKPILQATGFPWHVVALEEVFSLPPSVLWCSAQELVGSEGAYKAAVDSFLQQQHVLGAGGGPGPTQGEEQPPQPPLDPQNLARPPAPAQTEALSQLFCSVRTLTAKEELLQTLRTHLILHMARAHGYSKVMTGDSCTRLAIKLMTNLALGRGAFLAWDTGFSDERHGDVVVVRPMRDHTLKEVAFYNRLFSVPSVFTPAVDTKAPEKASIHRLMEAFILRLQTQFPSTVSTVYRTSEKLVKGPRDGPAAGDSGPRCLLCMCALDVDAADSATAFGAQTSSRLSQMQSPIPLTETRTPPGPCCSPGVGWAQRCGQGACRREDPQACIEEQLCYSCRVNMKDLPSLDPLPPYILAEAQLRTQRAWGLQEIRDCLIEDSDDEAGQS
UniProt O75629: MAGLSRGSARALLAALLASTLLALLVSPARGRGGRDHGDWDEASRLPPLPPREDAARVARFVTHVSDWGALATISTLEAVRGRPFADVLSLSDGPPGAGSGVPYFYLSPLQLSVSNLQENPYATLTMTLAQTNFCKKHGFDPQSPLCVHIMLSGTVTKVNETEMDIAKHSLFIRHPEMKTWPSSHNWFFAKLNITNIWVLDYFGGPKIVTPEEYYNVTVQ
UniProt Q9Y2S2: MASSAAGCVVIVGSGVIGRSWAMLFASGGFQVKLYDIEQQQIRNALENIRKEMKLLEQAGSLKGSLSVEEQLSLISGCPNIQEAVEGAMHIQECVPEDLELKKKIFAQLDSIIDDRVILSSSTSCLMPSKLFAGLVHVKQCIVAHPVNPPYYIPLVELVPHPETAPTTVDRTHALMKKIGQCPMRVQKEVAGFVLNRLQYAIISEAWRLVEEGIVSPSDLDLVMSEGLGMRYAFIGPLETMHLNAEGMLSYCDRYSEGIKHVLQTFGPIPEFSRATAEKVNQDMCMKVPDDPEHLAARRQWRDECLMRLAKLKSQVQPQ

Legend:
Assay in all cases: log2 fold change, soluble protein after heating vs DMSO (PISA); higher = thermal stabilisation; K562 lysate, 10 uM; active = over 0.2 and 3.5 SD of the protein, either way, in both replicates (recomputed)
lapatinib = compound: CS(=O)(=O)CCNCc1ccc(-c2ccc3ncnc(Nc4ccc(OCc5cccc(F)c5)c(Cl)c4)c3c2)o1 [lapatinib]
How it was run: (§1)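 Thermal stability, expressed as log-two fold change relative to solvent controls, is given from duplicates. Crude K562 extract in PBS pH 7.4 with 1 mM MgCl2, at 1 mg/mL protein, was treated with 10 μM compound for 30 min and heated in aliquots for 3 min across 48°C-58°C. After pooling, adjustment to 0.5% NP-40 at 4°C and centrifugation at 21,000xg for 90 min, supernatant protein was measured by TMTpro 16plex LC-MS/MS with channel sums equalised.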

pictilisib = compound: CS(=O)(=O)N1CCN(Cc2cc3nc(-c4cccc5[nH]ncc45)nc(N4CCOCC4)c3s2)CC1 [pictilisib]
How it was run: as §1

crizotinib = compound: C[C@@H](Oc1cc(-c2cnn(C3CCNCC3)c2)cnc1N)c1c(Cl)ccc(F)c1Cl [crizotinib]
How it was run: as §1

[1] = compound: C[C@H](C1=CC=C(C=C1)C(=O)NC2=C3C=CNC3=NC=C2)N
How it was run: as §1

duvelisib = compound: C[C@H](Nc1ncnc2nc[nH]c12)c1cc2cccc(Cl)c2c(=O)n1-c1ccccc1 [duvelisib]
How it was run: as §1

gandotinib = compound: Cc1cc(Nc2cc(CN3CCOCC3)c3nc(C)c(Cc4ccc(Cl)cc4F)n3n2)n[nH]1 [gandotinib]
How it was run: as §1

tozasertib = compound: Cc1cc(Nc2cc(N3CCN(C)CC3)nc(Sc3ccc(NC(=O)C4CC4)cc3)n2)n[nH]1 [tozasertib]
How it was run: as §1

doramapimod = compound: Cc1ccc(-n2nc(C(C)(C)C)cc2NC(=O)Nc2ccc(OCCN3CCOCC3)c3ccccc23)cc1 [doramapimod]
How it was run: as §1

bafetinib = compound: Cc1ccc(NC(=O)c2ccc(CN3CC[C@H](N(C)C)C3)c(C(F)(F)F)c2)cc1Nc1nccc(-c2cncnc2)n1 [bafetinib]
How it was run: as §1

[2] = compound: Cc1cccc(CC(=O)N2CCc3c2ccc(-c2cn(C)c4ncnc(N)c24)c3F)n1
How it was run: as §1

nilotinib = compound: Cc1cn(-c2cc(NC(=O)c3ccc(C)c(Nc4nccc(-c5cccnc5)n4)c3)cc(C(F)(F)F)c2)cn1 [nilotinib]
How it was run: as §1

[3] = compound: Cc1nc(Nc2n[nH]c3c2CN(C(=O)N[C@H](CN(C)C)c2ccccc2)C3(C)C)c2sccc2n1
How it was run: as §1

dasatinib = compound: Cc1nc(Nc2ncc(C(=O)Nc3c(C)cccc3Cl)s2)cc(N2CCN(CCO)CC2)n1 [dasatinib]
How it was run: as §1

[4] = compound: Cc1ncc(-c2ccnc(Nc3ccc(S(C)(=O)=O)cc3)n2)n1C(C)C
How it was run: as §1

[5] = compound: Cn1cc(-c2ccc3c(c2)CCN3C(=O)Cc2cccc(C(F)(F)F)c2)c2c(N)ncnc21
How it was run: as §1

quisinostat = compound: Cn1cc(CNCC2CCN(c3ncc(C(=O)NO)cn3)CC2)c2ccccc21 [quisinostat]
How it was run: as §1

tipifarnib = compound: Cn1cncc1[C@@](N)(c1ccc(Cl)cc1)c1ccc2c(c1)c(-c1cccc(Cl)c1)cc(=O)n2C [tipifarnib]
How it was run: as §1

[6] = compound: NC(=O)Nc1cc(-c2cccc(F)c2)sc1C(=O)N[C@H]1CCCNC1
How it was run: as §1

[7] = compound: NC(=O)c1cnc(N[C@@H]2CCCC[C@@H]2N)nc1Nc1cccc(-n2nccn2)c1
How it was run: as §1

[8] = compound: NC1(c2ccc(-c3nc4ccn5c(=O)[nH]nc5c4cc3-c3ccccc3)cc2)CCC1
How it was run: as §1

Measured: log2 fold change

CTBP2 isoform 2 (UniProt P56545)
inactive: lapatinib -0.031 | pictilisib -0.014 | crizotinib -0.029 | [1] -0.012 | duvelisib -0.09 | gandotinib -0.012 | tozasertib 0.016 | doramapimod 0.065 | bafetinib 0.014 | [2] 0.011 | nilotinib -0.022 | [3] 0.001 | dasatinib -0.025 | [4] -0.048 | [5] 0.019 | quisinostat -0.075 | tipifarnib -0.015 | [6] -0.037 | [7] 0.018 | [8] -0.079

CRIP2 isoform 2 (UniProt P52943)
inactive: lapatinib 0.011 | pictilisib -0.069 | crizotinib -0.022 | [1] 0.053 | duvelisib -0.112 | gandotinib -0.012 | doramapimod -0.103 | bafetinib -0.021 | [2] -0.107 | nilotinib 0.06 | [3] 0.086 | dasatinib 0.06 | [4] -0.237 | [5] 0.043 | quisinostat 0.03 | tipifarnib -0.075 | [6] -0.116 | [7] 0.018 | [8] -0.226

CTTNBP2NL (UniProt Q9P2B4)
inactive: lapatinib 0.027 | pictilisib 0.094 | crizotinib -0.079 | [1] 0.02 | gandotinib -0.352 | tozasertib 0.108 | doramapimod 0.024 | bafetinib 0.023 | [2] -0.162 | nilotinib -0.003 | [3] -0.047 | [4] 0.026 | quisinostat -0.082 | tipifarnib 0.169 | [6] -0.005 | [7] -0.007

CSDE1 isoform 3 (UniProt O75534)
inactive: lapatinib 0.184 | pictilisib -0.141 | crizotinib -0.179 | [1] 0.139 | gandotinib -0.043 | doramapimod 0.055 | bafetinib 0.126 | [2] -0.058 | nilotinib 0.064 | [3] -0.135 | [4] 0.016 | quisinostat 0.022 | tipifarnib -0.02 | [6] -0.085 | [7] -0.021

CRYM (UniProt Q14894)
inactive: lapatinib 0.012 | pictilisib 0.059 | crizotinib -0.017 | [1] -0.029 | gandotinib 0.067 | tozasertib 0.051 | doramapimod 0.047 | bafetinib -0.08 | [2] 0.09 | quisinostat -0.063 | [6] 0.033 | [7] 0.025

CTDP1 (UniProt Q9Y5B0)
inactive: lapatinib -0.003 | pictilisib -0.016 | crizotinib -0.054 | [1] 0.036 | duvelisib -0.037 | gandotinib -0.029 | tozasertib 0.01 | doramapimod 0.059 | bafetinib -0.03 | [2] -0.003 | nilotinib 0.007 | [3] 0.002 | dasatinib -0.028 | [4] -0.016 | [5] -0.004 | quisinostat -0.109 | tipifarnib 0.018 | [6] 0.006 | [7] 0.023 | [8] -0.014

CS (UniProt F8VU34)
inactive: lapatinib -0.352 | pictilisib -0.045 | duvelisib -0.126 | bafetinib 0.016 | dasatinib -0.089 | [5] -0.021 | [7] 0.08 | [8] 0.114

CREM isoform 1 (UniProt Q03060)
inactive: lapatinib 0.04 | pictilisib 0.016 | crizotinib 0.005 | [1] 0.004 | duvelisib 0.043 | gandotinib -0.029 | doramapimod 0.061 | bafetinib -0.117 | [2] -0.05 | nilotinib -0.061 | [3] -0.044 | dasatinib -0.125 | [4] 0.054 | [5] 0.067 | quisinostat -0.024 | tipifarnib 0.091 | [6] -0.035 | [7] -0.034

CTNNAL1 (UniProt Q9UBT7)
inactive: lapatinib -0.124 | crizotinib -0.102 | [1] -0.246 | duvelisib -0.152 | gandotinib 0.152 | tozasertib -0.02 | doramapimod 0.071 | [2] 0.269 | nilotinib -0.095 | [3] -0.079 | dasatinib -0.042 | [4] 0 | [5] -0.021 | quisinostat 0.059 | tipifarnib 0.212 | [6] 0.012 | [7] 0.015 | [8] -0.064

CUX1 isoform 2 (UniProt Q13948)
inactive: lapatinib -0.168 | crizotinib -0.073 | [1] 0.104 | duvelisib 0.014 | gandotinib 0.041 | tozasertib 0.057 | doramapimod -0.12 | [2] -0.089 | dasatinib 0.001 | [5] 0.101 | quisinostat 0.072 | [6] -0.026 | [7] -0.073 | [8] 0.012

CXorf40B (UniProt Q96DE9)
inactive: lapatinib 0.018 | pictilisib 0.034 | crizotinib 0.043 | [1] -0.079 | duvelisib 0.048 | gandotinib -0.045 | doramapimod -0.097 | bafetinib -0.083 | [2] -0.009 | nilotinib -0.018 | [3] 0.018 | dasatinib -0.052 | [4] -0.001 | [5] 0.107 | quisinostat 0.075 | tipifarnib 0.057 | [6] 0.035 | [7] 0.112

CRCP (UniProt O75575)
inactive: lapatinib -0.048 | pictilisib -0.075 | crizotinib 0.086 | [1] 0.015 | gandotinib 0.023 | tozasertib 0.046 | doramapimod -0.052 | bafetinib 0.054 | [2] 0.063 | nilotinib -0.024 | [3] 0 | [4] -0.033 | quisinostat 0.006 | tipifarnib -0.021 | [6] 0.052 | [7] 0.057 | [8] 0.009

CROCC2 (UniProt H7BZ55)
inactive: lapatinib -0.013 | pictilisib -0.121 | crizotinib -0.077 | duvelisib -0.062 | tozasertib 0.01 | doramapimod 0.041 | bafetinib -0.054 | dasatinib 0.089 | [5] 0 | quisinostat -0.077 | [6] 0.006 | [7] 0.052 | [8] 0.025

CRELD1 isoform 2 (UniProt Q96HD1)
inactive: lapatinib -0.022 | pictilisib 0.008 | [1] -0.023 | duvelisib 0.031 | gandotinib 0.045 | tozasertib 0.048 | bafetinib -0.066 | [2] -0.029 | nilotinib -0.126 | [3] 0.019 | dasatinib -0.018 | [4] -0.136 | [5] -0.038 | tipifarnib -0.008 | [7] 0.005 | [8] 0.006

CRTC1 (UniProt Q6UUV9)
inactive: lapatinib -0.047 | pictilisib 0.006 | crizotinib 0.032 | [1] -0.003 | duvelisib -0.024 | gandotinib -0.005 | tozasertib 0.057 | doramapimod 0.084 | bafetinib 0.092 | [2] 0.062 | dasatinib 0.036 | [5] -0.019 | quisinostat -0.062 | [6] 0.048 | [7] 0.121 | [8] -0.033

Random excerpt: 2 records from the list
CRTC1 (UniProt Q6UUV9)
inactive: lapatinib -0.047 | pictilisib 0.006 | crizotinib 0.032 | [1] -0.003 | duvelisib -0.024 | gandotinib -0.005 | tozasertib 0.057 | doramapimod 0.084 | bafetinib 0.092 | [2] 0.062 | dasatinib 0.036 | [5] -0.019 | quisinostat -0.062 | [6] 0.048 | [7] 0.121 | [8] -0.033

CXorf40B (UniProt Q96DE9)
inactive: lapatinib 0.018 | pictilisib 0.034 | crizotinib 0.043 | [1] -0.079 | duvelisib 0.048 | gandotinib -0.045 | doramapimod -0.097 | bafetinib -0.083 | [2] -0.009 | nilotinib -0.018 | [3] 0.018 | dasatinib -0.052 | [4] -0.001 | [5] 0.107 | quisinostat 0.075 | tipifarnib 0.057 | [6] 0.035 | [7] 0.112

Going on with the list:

CTU2 (UniProt Q2VPK5)
inactive: lapatinib 0.012 | pictilisib 0.007 | crizotinib 0.056 | [1] -0.013 | duvelisib -0.015 | gandotinib 0.013 | tozasertib 0.021 | doramapimod -0.009 | bafetinib 0.006 | [2] -0.009 | nilotinib 0.04 | [3] -0.018 | dasatinib 0.012 | [4] -0.024 | [5] 0.033 | quisinostat 0.112 | tipifarnib 0.014 | [6] -0.003 | [7] 0.006 | [8] 0.074

CREG1 (UniProt O75629)
inactive: lapatinib -0.029 | pictilisib -0.018 | crizotinib 0.027 | [1] 0.034 | duvelisib -0.039 | gandotinib 0.029 | tozasertib -0.022 | doramapimod -0.026 | bafetinib 0.002 | [2] -0.092 | nilotinib 0.114 | [3] -0.036 | dasatinib -0.015 | [4] 0.001 | [5] -0.016 | quisinostat 0.021 | tipifarnib 0.008 | [6] 0 | [7] -0.016 | [8] 0.015

CYBRD1 (UniProt Q53TN4)
inactive: lapatinib -0.04 | pictilisib -0.058 | crizotinib 0.041 | [1] -0.02 | duvelisib -0.08 | gandotinib 0.063 | doramapimod -0.139 | bafetinib -0.066 | [2] 0.034 | dasatinib 0.177 | [5] -0.014 | quisinostat 0 | [6] 0.05 | [7] 0.032 | [8] -0.152

CRYL1 (UniProt Q9Y2S2)
inactive: lapatinib -0.152 | crizotinib -0.074 | duvelisib 0.049 | doramapimod -0.043 | dasatinib -0.184 | [5] -0.078 | quisinostat -0.125 | [6] -0.034 | [7] -0.164 | [8] 0.177
